Data published in US20070244184A1, “GLYCOSIDASE INHIBITORS AND METHODS OF SYNTHESIZING SAME” (SIMON FRASER UNIVERSITY, priority 2006, published 2007).
For at least one compound, name, drawing or mass did not settle the structure.

By UniProt entry, the sequences of proteins in these tests, tags left out. Residues count along the entry.
UniProt O43451, 87-954 limits assumed: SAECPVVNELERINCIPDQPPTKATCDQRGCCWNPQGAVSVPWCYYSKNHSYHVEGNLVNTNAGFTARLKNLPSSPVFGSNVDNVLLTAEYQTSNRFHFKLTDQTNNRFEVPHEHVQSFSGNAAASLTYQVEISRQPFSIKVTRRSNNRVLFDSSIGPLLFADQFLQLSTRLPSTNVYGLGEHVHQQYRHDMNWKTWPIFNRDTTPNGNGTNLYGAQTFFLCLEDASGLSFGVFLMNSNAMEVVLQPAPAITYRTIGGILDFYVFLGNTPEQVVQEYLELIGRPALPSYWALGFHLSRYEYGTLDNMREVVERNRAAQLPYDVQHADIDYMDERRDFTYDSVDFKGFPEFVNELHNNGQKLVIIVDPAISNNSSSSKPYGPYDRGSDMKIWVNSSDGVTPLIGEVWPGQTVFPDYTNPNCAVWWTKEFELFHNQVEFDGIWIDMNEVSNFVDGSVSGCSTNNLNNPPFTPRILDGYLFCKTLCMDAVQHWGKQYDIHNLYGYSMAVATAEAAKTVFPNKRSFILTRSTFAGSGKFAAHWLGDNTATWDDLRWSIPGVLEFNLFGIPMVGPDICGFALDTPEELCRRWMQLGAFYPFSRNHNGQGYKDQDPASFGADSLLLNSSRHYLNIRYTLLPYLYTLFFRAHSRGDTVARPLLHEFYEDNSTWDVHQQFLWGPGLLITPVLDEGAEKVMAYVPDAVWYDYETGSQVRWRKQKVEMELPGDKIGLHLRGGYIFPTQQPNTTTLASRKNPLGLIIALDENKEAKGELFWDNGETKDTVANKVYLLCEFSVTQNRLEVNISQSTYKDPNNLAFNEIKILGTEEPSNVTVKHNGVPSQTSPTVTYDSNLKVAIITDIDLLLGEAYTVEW

Target: recombinant human maltase glucoamylase (MGA) (Homo sapiens, UniProt O43451)
Test: MGA inhibition, p-nitrophenyl α-D-glucopyranoside substrate (IC50)
Type: biochemical
Details: 49 vs 45
Description: The assays were carried out in 96-well microtiter plates containing 100 mM MES buffer pH 6.5, inhibitor and pNP-glucose as substrate, with a final volume of 50 μL. Reactions were incubated at 37° C. for 35 min and terminated by addition of 50 μL of 0.5 M sodium carbonate. […] All reactions were performed in triplicate and absorbance measurements were averaged to give a final result.

With `CCCCCCCCCCCCCCCCCC[S+]1CC(O)C(O)C1CO` [Compound 49, 1,4-Dideoxy-1,4-[(1-octadecyl)-(R)-episulfoniumylidene]-D-arabiiiitol chloride] the “increase in inhibitory activity upon extension of the alkyl chain from four carbons (45) to eighteen carbons (49)” value was 6.7 fold.
